About 6,200 (1.8%) of roughly 340,000 compounds were called active. The shares of active, inactive and inconclusive entries below differ from those in the screen. The call rests on the fitted dose curve; in most records, active means well fitted activation curve with a large enough effect; inconclusive means small, poorly fitted or top-dose-only effect; inactive means no such curve, though single readings can be large or run the other way. Potencies of inconclusive entries are doubtful fits and often do not repeat.
Assay: A quantitative high throughput screen for small molecules that induce DNA re-replication in SW480 colon adenocarcinoma cells. Further: nearly all actives have a fitted effect of over 55% in size. On re-replication activation: % of control where 0% means no effect.
Details: Hoechst DNA content imaging, 48 h; re-replication activation: at 46.1 µM (top of the series)
Procedure, shortened: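 Cells (250 per well) received 23 nL compound or DMSO by pin tool and were kept 48 hr at 37 C, 5% CO2. Nuclei were then stained with Hoechst for 40 min and scanned for DNA content.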
Potency means the concentration at half of the fitted maximal effect.

Row | Structure (SMILES) | Potency | re-replication activation
1 | O=C(CS)Nc1ccc2ccccc2c1 | inconclusive: 20.6 µM [activator, single point] | 
2 | CCNC(=O)c1c(NC(=O)c2cc(-c3cc(C)ccc3O)n[nH]2)sc2c1CCCC2 | inconclusive: 29.1 µM [activator, partial curve, poor fit] | 
3 | O=C(CN1C(=O)/C(=C/c2ccc(F)cc2)SC1=S)NC1CCS(=O)(=O)C1 (stereo not drawn) | inconclusive: 29.1 µM [activator, single point] | 
4 | CN(C)S(=O)(=O)c1ccc(C(=O)Nc2ccc(S(=O)(=O)NC3=NCCCCC3)cc2)cc1 |  | inactive: 3.07%
5 | COc1ccccc1N(CC(O)COc1ccc(C)cc1)S(=O)(=O)c1ccccc1 (stereo not drawn) |  | inactive: -1.4%
6 | CCOC(=O)c1c(C)n(C)c2cc(Br)c(C(=O)OC)cc12 |  | inactive: -1.58%
7 | CC(C)(C)OC(=O)N/N=C/c1cccn1-c1ccc([N+](=O)[O-])cc1 | inconclusive: 1.84 µM [activator, partial curve, poor fit] | 
8 | CC1CC(C)CN(CCOCCSc2ccc(Cl)cc2)C1 (stereo not drawn) | inconclusive: 29.1 µM [activator, single point] | 
9 | Cc1ccc(C(=O)Nc2ccc(S(=O)(=O)N3CCOCC3)cc2)cc1Br | inconclusive: 0.231 µM [activator, full curve, poor fit] | 
10 | COc1ccc(CNC(=O)C(C)N2C(=O)COc3ccc(C)cc32)c(OC)c1 (stereo not drawn) | inconclusive: 18.4 µM [activator, single point] | 
11 | Cc1ccc(C(=O)NC(=S)NCc2cccnc2)cc1 | inconclusive: 0.411 µM [activator, partial curve, poor fit] | 
12 | CN1CCCN(C(=O)CC2(CC(=O)O)CCCCC2)CC1 | inconclusive: 29.1 µM [activator, single point] | 
13 | O=C(CSc1n[nH]c(-c2ccccc2O)n1)N1CCCc2ccccc21 | inconclusive: 29.1 µM [activator, single point] | 
14 | Cc1ccc(C2CC(C(F)(F)F)n3nc(C(=O)NCCN4CCOCC4)cc3N2)cc1 (stereo not drawn) | inconclusive: 32.6 µM [activator, partial curve, poor fit] | 
15 | COC(=O)COc1cccc2c(=O)n(CC(=O)N3CCCCC3)ccc12 |  | inactive: -0.246%
16 | Cn1ncc(Br)c1C(=O)NC(=S)N1CCN(c2ccccn2)CC1 |  | inactive: -2.15%
17 | COc1cccc(CNC(=O)c2nnn(CC(=O)Nc3ccc(Br)cc3)c2N)c1 |  | inactive: -39.2%
18 | NS(=O)(=O)c1ccc(NC(=O)Cc2c(F)cccc2Cl)cc1 | inconclusive: 29.1 µM [activator, single point] | 
19 | CC1CCN(Cc2nnnn2CCCC(=O)N(C)C(C)c2ccccn2)CC1 (stereo not drawn) |  | inactive: -12.7%
20 | O=C1[C@@H](c2ccccc2)[C@@H](c2ccccc2)N1c1cccnc1 | inconclusive: 0.164 µM [activator, full curve] | 
21 | Cc1ccc(C)c(-n2c3nc(=O)[nH]c(=O)c-3cc3cc([N+](=O)[O-])ccc32)c1 | active: 3.16 µM | 
22 | C=CCNC(=S)Nc1cc(C)ccn1 | inconclusive: 29.1 µM [activator, single point] | 
23 | COc1cc(-c2noc(C)c2C(=O)N[C@@H](CO)Cc2ccccc2)cc(OC)c1OC | inconclusive: 0.92 µM [activator, full curve, poor fit] | 

Row | Structure (SMILES) | Potency | re-replication activation
24 | S=c1[nH]c2ccccc2n2c(=S)[nH]nc12 |  | inactive: -2.84%
25 | CCCCNC(=S)NNC(=O)c1csc(C(C)C)c1 |  | inactive: -2.96%
26 | CN1CCN(S(=O)(=O)c2ccccc2)C(c2ccccc2)C1 (stereo not drawn) | inconclusive: 3.66 µM [activator, single point] | 
27 | S=c1[nH]nc(-c2ccccc2)n1/N=C/C=C/c1ccco1 |  | inactive: -9.33%
28 | COc1ccc(Nc2ccnc(Nc3ccc(OC)cc3)n2)cc1 | inconclusive: 20.6 µM [activator, single point] | 
29 | CCC(=O)OC1(C)C(=O)C2=COC(c3ccc(OC)cc3)=CC2=C(Br)C1=O (stereo not drawn) |  | inactive: -0.904%
30 | CCOCCCN(CCC#N)S(=O)(=O)c1ccc(S(=O)(=O)N2CCCC2)cc1 |  | inactive: 0.617%
31 | O=C(O)CC12C[C@H]3C[C@@H](C1)CC(n1ncc(N4CCN(c5ccccc5)CC4)c(Cl)c1=O)(C3)C2 | inconclusive: 1.46 µM [activator, partial curve, poor fit] | 
32 | O=C(CNC(=O)c1ccccc1F)N/N=C/c1cc(Br)ccc1OC(=O)/C=C/c1ccco1 | active: 6.51 µM | 
33 | CC(OC(=O)c1ccc(C#N)cc1)C(=O)Nc1ccc(Cl)cn1 (stereo not drawn) | inconclusive: 1.16 µM [activator, full curve, poor fit] | 
34 | N#CCSc1nc2cc(C(=O)N3CCC(C(N)=O)CC3)ccc2c2nc3ccccc3n12 | inconclusive: 29.1 µM [activator, single point] | 
35 | Cc1ccc(-c2nn(-c3ccccc3)cc2C(=O)NCC(c2cccs2)N2CCOCC2)cc1 (stereo not drawn) |  | inactive: 8.49%
36 | COc1cccc(NC(=S)NCc2ccc3c(c2)cc(C)n3C)c1 |  | inactive: 4.55%
37 | C=CCn1c(SCc2nc3scc(-c4ccccc4)c3c(=O)[nH]2)nnc1-c1ccccc1F | inconclusive: 13 µM [activator, single point] | 
38 | O=C(Cn1c(=O)oc2ccccc21)N1CCN(S(=O)(=O)c2ccccc2)CC1 |  | inactive: -1.68%
39 | COc1ccc(CNC(C)C23CC4CC(CC(C4)C2)C3)c(OC)c1OC (stereo not drawn) | inconclusive: 29.1 µM [activator, single point] | 
40 | CCC(Sc1nc(C)cc(C)n1)C(=O)NC1=NN=C(c2ccc(C)cc2)CS1 (stereo not drawn) | inconclusive: 29.1 µM [activator, single point] | 
41 | CN(C)CCNCCCNc1c2ccccc2nc2cccc([N+](=O)[O-])c12 | inconclusive: 0.058 µM [activator, full curve, poor fit] | 
42 | Cc1ncc(CN2CCCC(C(=O)Nc3ccc(-c4cccc(F)c4)cc3)C2)n1C (stereo not drawn) | inconclusive: 23.1 µM [activator, single point] | 
43 | COCCc1nc2ccc(C(=O)NCc3cccc(-n4cccn4)c3)cc2o1 | inconclusive: 4.61 µM [activator, partial curve, poor fit] | 
44 | Cc1ccc(C)c(OCCCC(=O)Nc2ccccc2C(N)=O)c1 | inconclusive: 1.46 µM [activator, partial curve, poor fit] | 
45 | O=C1C2C3C=CC(C3=C(c3ccccc3)c3ccccc3)C2C(=O)N1Cc1ccccc1 (stereo not drawn) | inconclusive: 18.4 µM [activator, partial curve, poor fit] | 
46 | NS(=O)(=O)c1ccc(NC(=S)Nc2ccn(Cc3cccc4ccccc34)n2)cc1 | inconclusive: 0.0046 µM [activator, full curve, poor fit] | 

Compounds above that have a halogen, in the order listed:
Row | Structure (SMILES) | Potency | re-replication activation
3 | O=C(CN1C(=O)/C(=C/c2ccc(F)cc2)SC1=S)NC1CCS(=O)(=O)C1 (stereo not drawn) | inconclusive: 29.1 µM [activator, single point] | 
6 | CCOC(=O)c1c(C)n(C)c2cc(Br)c(C(=O)OC)cc12 |  | inactive: -1.58%
8 | CC1CC(C)CN(CCOCCSc2ccc(Cl)cc2)C1 (stereo not drawn) | inconclusive: 29.1 µM [activator, single point] | 
9 | Cc1ccc(C(=O)Nc2ccc(S(=O)(=O)N3CCOCC3)cc2)cc1Br | inconclusive: 0.231 µM [activator, full curve, poor fit] | 
14 | Cc1ccc(C2CC(C(F)(F)F)n3nc(C(=O)NCCN4CCOCC4)cc3N2)cc1 (stereo not drawn) | inconclusive: 32.6 µM [activator, partial curve, poor fit] | 
16 | Cn1ncc(Br)c1C(=O)NC(=S)N1CCN(c2ccccn2)CC1 |  | inactive: -2.15%
17 | COc1cccc(CNC(=O)c2nnn(CC(=O)Nc3ccc(Br)cc3)c2N)c1 |  | inactive: -39.2%
18 | NS(=O)(=O)c1ccc(NC(=O)Cc2c(F)cccc2Cl)cc1 | inconclusive: 29.1 µM [activator, single point] | 
29 | CCC(=O)OC1(C)C(=O)C2=COC(c3ccc(OC)cc3)=CC2=C(Br)C1=O (stereo not drawn) |  | inactive: -0.904%
31 | O=C(O)CC12C[C@H]3C[C@@H](C1)CC(n1ncc(N4CCN(c5ccccc5)CC4)c(Cl)c1=O)(C3)C2 | inconclusive: 1.46 µM [activator, partial curve, poor fit] | 
32 | O=C(CNC(=O)c1ccccc1F)N/N=C/c1cc(Br)ccc1OC(=O)/C=C/c1ccco1 | active: 6.51 µM | 
33 | CC(OC(=O)c1ccc(C#N)cc1)C(=O)Nc1ccc(Cl)cn1 (stereo not drawn) | inconclusive: 1.16 µM [activator, full curve, poor fit] | 
37 | C=CCn1c(SCc2nc3scc(-c4ccccc4)c3c(=O)[nH]2)nnc1-c1ccccc1F | inconclusive: 13 µM [activator, single point] | 
42 | Cc1ncc(CN2CCCC(C(=O)Nc3ccc(-c4cccc(F)c4)cc3)C2)n1C (stereo not drawn) | inconclusive: 23.1 µM [activator, single point] | 

The list continues.

Row | Structure (SMILES) | Potency | re-replication activation
47 | COc1ccc(/C=C(\C#N)C(=O)NC2CCS(=O)(=O)C2)cc1OC (stereo not drawn) | inconclusive: 4.61 µM [activator, partial curve, poor fit] | 
48 | Cc1cc(C)cc(OCC(=O)NNC(=S)NC(=O)C2CC2)c1 | inconclusive: 29.1 µM [activator, partial curve, poor fit] | 
49 | O=C(NCCN1CCOCC1)/C(=C\c1ccccc1Cl)NC(=O)c1ccccc1 | inconclusive: 35.5 µM [activator, partial curve, poor fit] | 
50 | NC(=O)[C@H]1CC2(CC(c3cccc(NC(=O)[C@H]4CCC(=O)N4)c3)=NO2)CN1C(=O)c1ccccc1C(=O)c1ccccc1 (stereo partly drawn) | inconclusive: 0.0046 µM [activator, full curve, poor fit] | 
51 | Cc1cc(Nc2ccccc2O)c2ccccc2n1 | inconclusive: 16.4 µM [activator, single point] | 
52 | COc1ccc([N+](=O)[O-])c(S(=O)(=O)c2ccccc2)n1 | inconclusive: 4.11 µM [activator, single point] | 
53 | O=C(CCCCCn1c(=S)[nH]c2cc3c(cc2c1=O)OCO3)N1CCN(c2ccccc2)CC1 |  | inactive: -10.8%
54 | COc1ccc(C(=O)OCC(=O)c2ccc(C3CCCCC3)cc2)cc1 |  | inactive: 0.471% [at 9.22 µM]
55 | CCN(CC)CCOC(=O)c1ccc(N/C=C(/C#N)c2nc(-c3ccc(OC)c(OC)c3)cs2)cc1 | active: 23.1 µM | 
56 | C=CCn1c(Sc2ncc([N+](=O)[O-])s2)n[nH]c1=O |  | inactive: -4.74%
57 | CCC(=O)NCCCCCCNC(=O)CC |  | inactive: -11.6%
58 | C=CCn1c(N)c(C(=O)Nc2cccc(C)c2)c2nc3ccccc3nc21 | inconclusive: 6.51 µM [activator, partial curve, poor fit] | 
59 | Cc1cc(NS(=O)(=O)c2ccc(Nc3nc(-c4ccc(O)cc4)cs3)cc2)no1 |  | inactive: 1.57%
60 | CN(C)c1ccc(S(=O)(=O)N2CCCCC2)cc1NC(=O)CCNC(=O)c1ccco1 |  | inactive: -10.3%
61 | CC1CCN(S(=O)(=O)c2ccc3c(c2)N(CC(=O)NCCCN2CCCC(C)C2)C(=O)CS3)CC1 (stereo not drawn) | inconclusive: 29.1 µM [activator, single point] | 
62 | CCN(CC)CCC=C(c1cccs1)c1cccs1 | inconclusive: 25.9 µM [activator, single point] | 
63 | CC(=O)N/N=C\c1cccc(OC/C=C/c2ccccc2)c1 | inconclusive: 2.31 µM [activator, full curve, poor fit] | 
64 | CCN1CCCC1CNCC(O)COc1ccc(C(C)(C)C)cc1C (stereo not drawn) | inconclusive: 29.1 µM [activator, single point] | 
65 | CCCNC(=O)c1c(N)n(-c2cc(OC)cc(OC)c2)c2nc3ccccc3nc12 | active: 9.2 µM | 
66 | COc1ccc2cc(S(=O)(=O)c3ccccc3)c(=O)oc2c1 | inconclusive: 29.1 µM [activator, single point] | 
67 | CN(C(=O)COC(=O)CCc1c[nH]c2ccccc12)c1ccccc1 |  | inactive: -15.9%
68 | N/C(=N/O)c1nc(N2CCCC2)nc(N(c2ccccc2)c2ccccc2)n1 | inconclusive: 25.1 µM [activator, partial curve, poor fit] | 

Quoted from the listing.
NC(=O)[C@H]1CC2(CC(c3cccc(NC(=O)[C@H]4CCC(=O)N4)c3)=NO2)CN1C(=O)c1ccccc1C(=O)c1ccccc1 (stereo partly drawn) – Potency: inconclusive: 0.0046 µM [activator, full curve, poor fit]
CCCNC(=O)c1c(N)n(-c2cc(OC)cc(OC)c2)c2nc3ccccc3nc12 – Potency: active: 9.2 µM
